Measurements published in article PMC8546615, “Polyketide Starter and Extender Units Serve as Regulatory Ligands to Coordinate the Biosynthesis of Antibiotics in Actinomycetes” (mBio, 2021).
Where a protein sequence is shown, tags need not be part of it. For at least one entry, the source does not settle the construct or the ends of the probe. For some assays here: No signal at the amounts used counts as a negative. For some assays here: A weaker result is weaker than the reference pair of the same experiment.

Legend:
[1] = molecular target: T1, AcrT (Saccharopolyspora erythraea A226) (UniProt A4FGS6); assay: BLI; conditions: BLI: 1 mM Tris-HCl pH 8.0, 5 mM MgCl2, 60 mM KCl, 10 mM DTT, 50 mM EDTA, 10% glycerol, 25 C, recombinant protein, protein details: N-terminal His (pET28a), label: biotin
T1 sequence (looked up, limits assumed): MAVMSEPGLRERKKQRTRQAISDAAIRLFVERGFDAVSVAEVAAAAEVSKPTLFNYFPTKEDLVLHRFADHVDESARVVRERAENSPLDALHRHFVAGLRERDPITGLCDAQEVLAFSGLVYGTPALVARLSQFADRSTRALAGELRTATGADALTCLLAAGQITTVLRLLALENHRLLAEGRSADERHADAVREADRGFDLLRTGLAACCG

[2] = molecular target: T1, AcrT (Saccharopolyspora erythraea A226); assay: EMSA; conditions: EMSA: binding buffer (composition not given), 30 C 20 min, 6% native PAGE in TAE, recombinant protein, protein details: N-terminal His (pET28a), probe letters rebuilt from the primers and the genome
[3] = tested on: T2, AcrTSa (Streptomyces avermitilis NRRL8165); assay: EMSA; conditions: EMSA: binding buffer (composition not given), 30 C 20 min, 6% native PAGE in TAE, recombinant protein, residues 1-204, protein details: His (pET28a), probe letters rebuilt from the primers and the genome
T2 sequence (looked up): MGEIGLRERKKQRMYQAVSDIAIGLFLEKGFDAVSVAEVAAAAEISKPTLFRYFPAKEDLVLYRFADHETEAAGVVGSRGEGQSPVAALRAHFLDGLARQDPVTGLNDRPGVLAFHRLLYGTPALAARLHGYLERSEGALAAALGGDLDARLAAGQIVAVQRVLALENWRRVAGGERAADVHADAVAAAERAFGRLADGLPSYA

Sequence “AGGCGATGTCAACCTCTTGATCCTTCCTATATTGTTCGCCCATTGCGTGG (double strand) [50-bp site A probe]” has a Kd ([1]; 400 uM methylmalonyl-CoA) of 0.0508 µM, a Kd ([1]; 400 uM propionyl-CoA) of 0.0811 µM and a Kd ([1]; 800 uM methylmalonyl-CoA) of 0.155 µM. The Kd ([1]; 800 uM propionyl-CoA) was 0.194 µM.
“GGCAACACGACTGAACACCGACTCGAGCCTCCTGATTCACTGCAACCTGTCCGAGGGCGGTCTAGCCCCACGATGGGACACGATCTCGGTTACCGGCCAGTATGGAAATGTAGAACACGCCCCATGATCCGAACCAAAAGTCGTAAGGAATCGCCAAAGTGCAGGTTCCGGCGGGGGCGTTGCGGCCGGGAACCCGCTCCGGGAGGCTCCGCGGCGCCGGTCCGGCCCACGGCGAGTGGCCGGAGCGGCACTCTCGGTTCGGGCGGTCCGGCTACGTGATTCGTGCCATGTACCTGGCAGGTTGCTGCCACGCGCAGT (double strand) [P4237]”: no binding [2].
“CTGAGCTGTGTCCTCACCGCTAGGCAATGCTCGGCGGCCGTGCGGACATGATGAGAGCTGCAATGCAGCGTCGAAGAATGAAAGGAGCGCGAGAAATCCGCTGACGGCCGGGCATCAATGTCTTGAACGTCTTCAACTCTTCAAAGCTAATGACGGCGCGGCGGCGGCGAATACCCCTATCCACCCCTGGGCTGTGCCGTTCCCAAGGGTGTTCATTTCTTAGGGGATCGGGGTGTCTGCATAGCTCGGACAAGTGGCAGAAAAAGGTCTACGTTTCCTGGAGTAGATCGCCACGACAGCTGGGCCGCCCGGCCCGGATTGCGGAGGTTCCCGA (double strand) [PaveA1]”: binds [3]; binds more weakly ([3]; M-CoA); binds ([3]; acetyl-CoA (no effect)). “CTGAGCTGTGTCCTCACCGCTAGGCAATGCTCGGCGGCCGTGCGGACATGATGAGAGCTGCAATGCAGCGTCGAAGAATGAAAGGAGCGCGAGAAATCCGCTGACGGCCGGGCATCAATGTCTTGAACGTCTTCAACTCTTCAAAGCTAATGACGGCGCGGCGGCGGCGAATACCCCTATCCACCCCTGGGCTGTGCCGTTCCCAAGGGTGTTCATTTCTTAGGGGATCGGGGTGTCTGCATAGCTCGGACAAGTGGCAGAAAAAGGTCTACGTTTCCTGGAGTAGATCGCCACGACAGCTGGGCCGCCCGGCCCGGATTGCGGAGGTTCCCGA (double strand) [PaveA1]”: binds more weakly ([3]; isobutyryl-CoA); binds more weakly ([3]; methylbutyryl-CoA); binds more weakly ([3]; methylmalonyl-CoA).
“GCTGCTTCTTTAGCACACCGCTACCAGCGCCAAATCGATGTGACCAGGCGTTTTACCTCGACATGATTGTTTGTTTACAACCTTTTTTCAGGCGTTTGCGCTCGCAGGCGTTGCTTTGGCGAGCGCGCTGTGATCTTCGTCATCAGTTCGGTGAGGGCACTCGATCCGATTGCGTGAGCGCCACCCCGCGGTGCACTGTTGCACGACGACCACGGCCGCTTCCGCGTTCCGAACCCCCGCCACGTCGAAACCGCGCGCGCCCGCGCGCGGCACCACCGAGCGTGAGAGACGAGGCATC (double strand) [P0632-0633]”: binds more weakly ([2]; methylmalonyl-CoA); binds more weakly ([2]; propionyl-CoA).
“CGCGTAGGACTCCGAGGCCGGGTCGACGGCCGTGGTGAGGACGGGCGCATCCATGCGTTGTGCACACCTTCCGCGGTCAGCGCGTTAGTCATCGTTAACCAACGGGATCGATGTTAACGACGACTAACCCCTTCGTCTAGTATCGACACGATGGAGGCAAAGCCGTCCCGGCGCGAGCAGATCCTGGAAG (double strand) [P7038-7039]”: binds more weakly ([2]; methylmalonyl-CoA); binds more weakly ([2]; propionyl-CoA).
“GACGTCCTCCTCCTGGTGCGGTCGGTTTGGACGTGTCCTCACCTACACCGAGGCGGCGCGGGCGCGCGTGGATACGTCACCGGCGCCGTCGATCCGGATCCGCCTCGGCATGTATCCCGCGGCGGCGCAGCCCGCTCTGTACGGGTGGATCTCGCGGGCGAGCCGACTCCGCGTCGAGCCACGCGCGAGGTCACCGCGCGAGACGGGTCCCGCTCGTCCGCGACGACCTGTGAGGAGGGACGTGGTGAGT (double strand) [P0018-0028]”: binds more weakly ([2]; methylmalonyl-CoA); binds more weakly ([2]; propionyl-CoA).
